Results on six substances are retold here after publication PMC13581189.

Amino acid sequences for entries named in this document (tags omitted). A change or cut given only in a name is not applied to a line headed by its entry.
UniProt Q13351: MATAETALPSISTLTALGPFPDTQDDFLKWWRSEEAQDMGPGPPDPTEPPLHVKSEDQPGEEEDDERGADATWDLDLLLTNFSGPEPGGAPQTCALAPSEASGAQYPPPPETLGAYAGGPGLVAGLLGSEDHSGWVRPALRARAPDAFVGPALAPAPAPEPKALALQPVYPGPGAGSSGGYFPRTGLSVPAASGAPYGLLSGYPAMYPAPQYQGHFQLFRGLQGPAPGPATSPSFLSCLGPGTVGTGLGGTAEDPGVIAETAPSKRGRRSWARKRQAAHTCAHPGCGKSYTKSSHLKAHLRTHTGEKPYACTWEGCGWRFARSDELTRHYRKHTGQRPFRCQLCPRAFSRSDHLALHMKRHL
UniProt P46099: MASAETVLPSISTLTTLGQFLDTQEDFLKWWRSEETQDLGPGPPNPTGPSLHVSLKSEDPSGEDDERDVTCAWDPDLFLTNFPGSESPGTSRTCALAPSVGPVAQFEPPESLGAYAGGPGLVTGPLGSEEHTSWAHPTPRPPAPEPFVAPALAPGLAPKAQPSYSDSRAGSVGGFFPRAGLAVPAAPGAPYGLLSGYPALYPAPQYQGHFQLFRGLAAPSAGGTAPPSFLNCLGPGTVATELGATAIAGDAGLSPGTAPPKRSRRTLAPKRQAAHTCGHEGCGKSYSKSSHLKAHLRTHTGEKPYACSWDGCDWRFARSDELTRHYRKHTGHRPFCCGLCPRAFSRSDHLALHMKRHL
UniProt P08047: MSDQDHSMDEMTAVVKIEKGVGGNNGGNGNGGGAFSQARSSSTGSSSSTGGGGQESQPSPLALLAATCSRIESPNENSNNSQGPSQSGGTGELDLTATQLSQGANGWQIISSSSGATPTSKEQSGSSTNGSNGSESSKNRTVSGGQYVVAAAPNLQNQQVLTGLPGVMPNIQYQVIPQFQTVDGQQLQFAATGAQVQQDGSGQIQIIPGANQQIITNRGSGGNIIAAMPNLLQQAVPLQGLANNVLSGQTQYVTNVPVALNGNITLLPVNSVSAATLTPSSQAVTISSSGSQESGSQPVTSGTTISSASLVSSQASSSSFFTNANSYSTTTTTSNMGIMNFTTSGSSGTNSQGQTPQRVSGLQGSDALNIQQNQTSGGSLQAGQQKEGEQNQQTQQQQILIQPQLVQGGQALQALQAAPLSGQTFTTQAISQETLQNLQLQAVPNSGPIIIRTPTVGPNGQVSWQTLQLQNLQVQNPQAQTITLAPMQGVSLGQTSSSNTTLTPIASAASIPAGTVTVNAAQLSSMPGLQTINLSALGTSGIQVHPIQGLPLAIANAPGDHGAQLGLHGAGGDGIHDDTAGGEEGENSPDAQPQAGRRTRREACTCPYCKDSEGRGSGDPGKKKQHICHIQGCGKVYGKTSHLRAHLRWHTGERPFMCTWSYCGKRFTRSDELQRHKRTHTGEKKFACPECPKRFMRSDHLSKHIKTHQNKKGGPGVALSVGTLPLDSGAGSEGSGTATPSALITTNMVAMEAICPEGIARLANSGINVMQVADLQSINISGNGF
UniProt P14859: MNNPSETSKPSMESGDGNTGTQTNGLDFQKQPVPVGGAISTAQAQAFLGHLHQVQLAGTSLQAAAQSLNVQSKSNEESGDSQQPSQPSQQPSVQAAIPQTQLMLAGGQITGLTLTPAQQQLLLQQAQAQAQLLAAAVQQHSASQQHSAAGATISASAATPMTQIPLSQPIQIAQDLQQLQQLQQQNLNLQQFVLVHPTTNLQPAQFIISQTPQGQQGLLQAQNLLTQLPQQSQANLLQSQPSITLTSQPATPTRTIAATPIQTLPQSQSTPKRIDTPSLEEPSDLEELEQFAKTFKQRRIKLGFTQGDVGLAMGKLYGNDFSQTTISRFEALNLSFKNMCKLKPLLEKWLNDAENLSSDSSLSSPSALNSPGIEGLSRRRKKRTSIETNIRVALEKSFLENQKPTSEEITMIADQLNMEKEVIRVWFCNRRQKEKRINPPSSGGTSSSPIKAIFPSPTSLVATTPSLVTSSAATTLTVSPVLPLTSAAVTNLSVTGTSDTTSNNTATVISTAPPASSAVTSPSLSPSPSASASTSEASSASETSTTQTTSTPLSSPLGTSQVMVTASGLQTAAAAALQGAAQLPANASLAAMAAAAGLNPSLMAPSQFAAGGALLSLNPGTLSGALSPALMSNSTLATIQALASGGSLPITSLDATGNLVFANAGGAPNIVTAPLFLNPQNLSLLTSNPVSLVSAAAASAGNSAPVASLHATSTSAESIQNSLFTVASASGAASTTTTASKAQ

Results are given in words; binding and its absence hold for the method and conditions named. Binding seen in cells or lysates may run through a third protein. Some results given as binding are weak or reduced against the parent protein; the word gives no strength.

One assay has as its target Halo-Klf1 (human) (UniProt Q13351). In words: proximity-assisted photoactivation (PAPA); live U2OS cells; Halo-Klf1 sender coexpressed with SNAPf receiver from a bicistronic transgene at AAVS1; normalised to nuclear SNAPf control.
For the substance Klf1 E325K (from UniProt Q13351 1-362), the binding entry is listed as “binds”.

For “Klf1 K288X (from UniProt Q13351 1-287) (domain or fragment)”, the binding entry is recorded as “binds”.

Turning to Mouse Klf1 (from UniProt P46099 1-358), the binding entry was “binds”.

With SNAPf-Klf1 (from UniProt Q13351 1-362), the binding entry is recorded as “binds”.

The target in another assay is endogenous Halo-tagged Sp1 (human (endogenous in U2OS)) (UniProt P08047). The assay can be described thus: proximity-assisted photoactivation (PAPA); live U2OS cells, 37°C; endogenous Halo-Sp1 (JF549 sender) with doxycycline-induced SNAPf-tagged receiver (JFX650); proximity index = PAPA/DR normalised to SNAPf-NLS; reports proximity within ~20 nm.
For SNAPf-Oct1 (from UniProt P14859 1-743), the binding entry is reported as “binds”.

“SNAPf-Sp1 WT (from UniProt P08047 1-785)”: the binding entry is given as “binds”.
